{"source": "PubChem BioAssay AID1259254 (NCATS, 2017)", "aim": "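Gene knock-downs that lead to re-replication, shown by excess G2 DNA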 (primary screen)", "system": "human HCT116 colorectal cancer cells", "reagents": "single siRNA against human genes", "timing": "3 days", "detection": "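Imaged Hoechst DNA stain sorts each cell into a cycle phase by DNA amount; per plate, G2 fraction set to 0% for non-targeting and 100% for GMNN siRNA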", "scale": "G2 robust z-score and G2 cells, % of GMNN control: higher = more G2 cells, more excess DNA replication", "active means": "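Active siRNAs have a G2 robust z of 5 or more median absolute deviations over the median, which in these data means about 38% or higher of GMNN control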", "note": "Shown is an unselected part of about 59,000 reagents. Of all reagents, about 1,550 (2.6%) were called active. 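G2 share is only a proxy for re-replication; each gene was hit by three separate siRNAs, and active genes were retested.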 A number with no mark means an inactive call. Reagents against one gene are numbered here. Not all columns of the deposit are shown. Not given: the amount of reagent."}
{"target gene": "MARCHF2 (membrane associated ring-CH-type finger 2)", "siRNA no.": 1, "G2 robust z-score": "8.79 (active)", "G2 cells, % of GMNN control": 64.8}
{"target gene": "MARCHF2 (membrane associated ring-CH-type finger 2)", "siRNA no.": 2, "G2 robust z-score": -0.537, "G2 cells, % of GMNN control": -0.809}
{"target gene": "MARCHF2 (membrane associated ring-CH-type finger 2)", "siRNA no.": 3, "G2 robust z-score": -0.571, "G2 cells, % of GMNN control": -1.05}
{"target gene": "KCNK9 (potassium two pore domain channel subfamily K member 9)", "siRNA no.": 1, "G2 robust z-score": -0.288, "G2 cells, % of GMNN control": 0.939}
{"target gene": "KCNK9 (potassium two pore domain channel subfamily K member 9)", "siRNA no.": 2, "G2 robust z-score": 1.06, "G2 cells, % of GMNN control": 10.4}
{"target gene": "KCNK9 (potassium two pore domain channel subfamily K member 9)", "siRNA no.": 3, "G2 robust z-score": -0.888, "G2 cells, % of GMNN control": -3.28}
{"target gene": "SPTLC3 (serine palmitoyltransferase long chain base subunit 3)", "siRNA no.": 1, "G2 robust z-score": -0.198, "G2 cells, % of GMNN control": 1.57}
{"target gene": "SPTLC3 (serine palmitoyltransferase long chain base subunit 3)", "siRNA no.": 2, "G2 robust z-score": -0.0867, "G2 cells, % of GMNN control": 2.36}
{"target gene": "SPTLC3 (serine palmitoyltransferase long chain base subunit 3)", "siRNA no.": 3, "G2 robust z-score": 2.56, "G2 cells, % of GMNN control": 21}
{"target gene": "FKBP1B (FKBP prolyl isomerase 1B)", "siRNA no.": 1, "G2 robust z-score": 3.5, "G2 cells, % of GMNN control": 27.6}
{"target gene": "FKBP1B (FKBP prolyl isomerase 1B)", "siRNA no.": 2, "G2 robust z-score": 0.112, "G2 cells, % of GMNN control": 3.76}
{"target gene": "FKBP1B (FKBP prolyl isomerase 1B)", "siRNA no.": 3, "G2 robust z-score": 0.336, "G2 cells, % of GMNN control": 5.33}

No new results follow: an excerpt of the list.
{"target gene": "FKBP1B (FKBP prolyl isomerase 1B)", "siRNA no.": 1, "G2 robust z-score": 3.5, "G2 cells, % of GMNN control": 27.6}
{"target gene": "FKBP1B (FKBP prolyl isomerase 1B)", "siRNA no.": 2, "G2 robust z-score": 0.112, "G2 cells, % of GMNN control": 3.76}

The results go on:
{"target gene": "SLC10A6", "siRNA no.": 1, "G2 robust z-score": 0.389, "G2 cells, % of GMNN control": 5.7}
{"target gene": "SLC10A6", "siRNA no.": 2, "G2 robust z-score": -1, "G2 cells, % of GMNN control": -4.09}
{"target gene": "SLC10A6", "siRNA no.": 3, "G2 robust z-score": 1.33, "G2 cells, % of GMNN control": 12.3}
{"target gene": "MAGEB4 (MAGE family member B4)", "siRNA no.": 1, "G2 robust z-score": 0.526, "G2 cells, % of GMNN control": 6.67}
{"target gene": "MAGEB4 (MAGE family member B4)", "siRNA no.": 2, "G2 robust z-score": -0.362, "G2 cells, % of GMNN control": 0.422}
{"target gene": "MAGEB4 (MAGE family member B4)", "siRNA no.": 3, "G2 robust z-score": 0.0412, "G2 cells, % of GMNN control": 3.26}
